# Laboratory results: paper PMC11405040, “PRMT5-mediated FUBP1 methylation accelerates prostate cancer progression” (The Journal of Clinical Investigation, 2024)
# The chains behind the UniProt entries cited, without tags or fusion partners.
# UniProt Q96AE4: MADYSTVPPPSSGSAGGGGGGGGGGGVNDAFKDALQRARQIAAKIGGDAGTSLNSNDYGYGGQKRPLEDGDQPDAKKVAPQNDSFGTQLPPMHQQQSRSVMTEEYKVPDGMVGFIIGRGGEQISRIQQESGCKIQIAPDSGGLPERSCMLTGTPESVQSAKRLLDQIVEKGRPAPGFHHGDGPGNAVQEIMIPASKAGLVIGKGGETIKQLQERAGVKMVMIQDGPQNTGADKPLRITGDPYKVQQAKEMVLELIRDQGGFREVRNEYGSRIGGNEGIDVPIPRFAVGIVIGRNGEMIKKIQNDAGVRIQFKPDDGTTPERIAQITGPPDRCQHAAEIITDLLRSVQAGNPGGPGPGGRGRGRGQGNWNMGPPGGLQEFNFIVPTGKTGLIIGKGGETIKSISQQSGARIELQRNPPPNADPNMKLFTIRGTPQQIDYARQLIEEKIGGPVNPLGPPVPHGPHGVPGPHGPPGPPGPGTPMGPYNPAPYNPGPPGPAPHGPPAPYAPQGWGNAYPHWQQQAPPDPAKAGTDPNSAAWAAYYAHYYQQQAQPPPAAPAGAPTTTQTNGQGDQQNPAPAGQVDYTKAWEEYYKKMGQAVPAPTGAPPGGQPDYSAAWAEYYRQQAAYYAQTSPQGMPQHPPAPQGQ
# UniProt Q9BQA1: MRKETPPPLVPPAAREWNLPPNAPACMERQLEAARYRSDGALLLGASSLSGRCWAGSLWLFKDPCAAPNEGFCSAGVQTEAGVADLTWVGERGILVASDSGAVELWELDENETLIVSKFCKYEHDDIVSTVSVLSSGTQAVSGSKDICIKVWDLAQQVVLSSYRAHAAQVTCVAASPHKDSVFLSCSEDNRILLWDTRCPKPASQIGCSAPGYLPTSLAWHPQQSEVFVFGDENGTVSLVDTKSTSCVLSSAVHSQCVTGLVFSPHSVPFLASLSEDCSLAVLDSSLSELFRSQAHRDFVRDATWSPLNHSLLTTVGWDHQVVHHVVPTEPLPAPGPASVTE
# UniProt O14744: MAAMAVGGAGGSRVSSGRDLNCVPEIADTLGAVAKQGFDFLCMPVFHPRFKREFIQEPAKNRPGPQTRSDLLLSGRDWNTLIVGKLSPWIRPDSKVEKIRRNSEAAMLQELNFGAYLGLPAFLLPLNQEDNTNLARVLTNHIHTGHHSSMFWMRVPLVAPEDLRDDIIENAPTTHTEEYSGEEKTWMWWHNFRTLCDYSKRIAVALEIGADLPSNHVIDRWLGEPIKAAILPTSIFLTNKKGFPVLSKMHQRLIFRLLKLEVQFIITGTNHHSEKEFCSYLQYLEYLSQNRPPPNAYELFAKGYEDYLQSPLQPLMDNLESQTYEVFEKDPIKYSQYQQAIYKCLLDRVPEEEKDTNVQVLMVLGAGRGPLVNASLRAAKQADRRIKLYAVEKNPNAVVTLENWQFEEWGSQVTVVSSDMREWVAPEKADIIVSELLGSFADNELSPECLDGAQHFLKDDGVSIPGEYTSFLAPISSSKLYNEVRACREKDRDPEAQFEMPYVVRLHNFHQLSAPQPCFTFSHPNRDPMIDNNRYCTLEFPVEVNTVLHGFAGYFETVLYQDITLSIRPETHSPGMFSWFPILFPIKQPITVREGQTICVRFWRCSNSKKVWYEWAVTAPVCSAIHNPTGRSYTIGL
# Molecular target: FUBP1, bait of the immunoprecipitation-mass spectrometry (human) (UniProt Q96AE4)
# Assay: affinity purification with mass spectrometry; immunoprecipitation of FUBP1, in-gel digestion with trypsin and chymotrypsin, LC-MS/MS; cells not given
row,Substance,binding
1,"MEP50, found in the FUBP1 immunoprecipitate by mass spectrometry (from UniProt Q9BQA1 1-342)",binds
2,"PRMT5, found in the FUBP1 immunoprecipitate by mass spectrometry (from UniProt O14744 1-637) (enzyme)",binds

# These are yes or no findings as the source states them, for the method shown. Binding seen in cells or lysates may run through a third protein. Here binding means that the protein was enriched with, or labelled near, the bait; the list need not be complete.
